Measurements: US5817670A, “Naphthyridine derivatives and pharmaceutical compositions thereof” (Yamanouchi Pharmaceutical Co., Ltd., priority 1994, dated 1998)
For at least one compound, name, drawing or mass did not settle the structure.

Legend:
[1] = target: type III phosphodiesterase; test: Phosphodiesterase inhibition activity (in vitro), Type III; assay type: biochemical, rat
Description: (§1) (A) In order to evaluate selectivity of the compounds of the present invention for type IV phosphodiesterase, types I, II, III and V phosphodiesterase isozymes were purified in the following manner.
(§2) 1) Solutions containing various phosphodiesterase (types I, II and III) isozymes were purified from rat heart muscle cells in the following manner. Under ether anesthesia, Wistar rat was subjected to thoracotomy to excise the heart. After removing blood by perfusion with physiological saline supplemented with heparin (1 unit/ml), the heart was finely chopped with scissors. This was suspended in buffer A (20 mM Bis-Tris, 5 mM dithioerythritol, 2 mM EGTA and 50 mM sodium acetate, pH 6.5) containing a protease inhibitor (50 μM phenyl-methyl-sulfonyl-fluoride, 5 μM pepstatin A, 40 μM leupeptin, 20 μM aprotinin or 2 mM benzamidine) and then the cells were disrupted using polytron and sonicator and subjected to ultracentrifugation (4° C., 100,000×g, 60 minutes) to give a soluble fraction.
(§3) 2) Solutions containing various phosphodiesterase isozymes were obtained from the thus obtained soluble fraction in the following manner. […]
(§4) (B) Inhibitory activities were measured using the thus obtained stock solutions of various phosphodiesterase isozymes. […]

type I phosphodiesterase = test: Phosphodiesterase inhibition activity (in vitro), Type I; assay type: biochemical, rat
Description: as §1, §2, §3, §4

[2] = target: type IV phosphodiesterase; test: Phosphodiesterase inhibition activity (in vitro), Type IV; assay type: biochemical, human (peripheral blood of a healthy person)
Procedure: (1) Method for measuring type IV phosphodiesterase inhibition activity
The following assay was used for the evaluation of the capability of the compounds of the present invention to inhibit type IV phosphodiesterase.
1) Physiological saline (200 ml) supplemented with dextran (3%) was added to 500 ml of heparinized peripheral blood of a healthy person and incubated at 37° C. for 40 minutes to effect precipitation of erythrocytes. The supernatant after precipitation of erythrocytes was recovered and centrifuged once, and the resulting precipitate was suspended in buffer A (140 mM NaCl, 5 mM KCl, 5 mM glucose and 10 mM HEPES, pH 7.4), overlaid on a solution for density gradient centrifugation use (Ficoll solution) and then centrifuged at room temperature for 40 minutes at 450×g, thereby separating monocyte fraction and granulocyte fraction. […]
3) A predetermined amount of each compound to be tested was subjected to 10 minutes of reaction at 30° C. in a reaction mixture containing 40 mM Tris-HCl (pH 8.0), 5 mM MgCl2, 4 mM 2-mercaptoethanol, 0.3 μM cilostamide (a type III phosphodiesterase selective inhibitor), 1 μM cAMP, 10 nM ^3 H-cAMP and the type IV phosphodiesterase stock solution. […] The reaction solution was passed through a Dowex 1×8 column to adsorb un-hydrolyzed material and then the radioactivity was measured. […]

CCc1cc(C)c2c(-c3cccc(Cl)c3)cc(=O)n(CC)c2n1 [Example 39, 4-(3-Chlorophenyl)-1,7-diethyl-5-methyl-1,8-naphthyridin-2(1H)-one]
IC50 [1]: > 3000 nM | IC50 (type I phosphodiesterase): 2.5 nM | IC50 [2]: > 3000 nM
